Source: paper doi:10.1101/2022.03.04.482948
No constants are given. Whether binding was seen depends on the method and setting. In cells and extracts the contact can be indirect. These calls come from enrichment with a bait or labelling near it, and not all partners need be listed.

B1: Importin-4 (protein, UniProt Q8VI75 1-1082)
chain: MEPAGLEQILKELLLPDTERIRRATEQLQTILRDPAALPALFDLLATATDSQIRQFAAVLTRRRLNNRWRRLAPEQRESLKSLVLTALQKETVHSVSVSLAQLSATIFRKEGLQGWPQFMNLLQHSTHSSHSPEKEVGLLLLSVVVSSQPEAFHAHQHELLQLLNETLSDVSFPGVLFYSLRTLTAIARYVRPDDVSLARMLVPKVVTALRTLIPLDEVKACEALEALDEMLETELPIINPHLSEVLTFCLEVAKNVALGEPLRVRVLCCLTFLVKVKSKALLKNRLVPPLLHALFPLMAAEPPMGQLDPEDQDSDDDDLEIGLMGETPKHFAVQVVDMLALHLPPEKLCPHVMPMLEEALRSEDPYQRKAGFLVLAVLSDGAGDHIRQRLLYPLLQIVCKGLDDPSQIVRNAALFALGQFSENLQPHISSYSEEVMPLLLSYLKSVPMGNTHHLAKACYALENFVENLGPKVQPYLPELMECMLQPLKNPSKARTKELAVSAIGAIATAAQDSLLPYFPTIMDLLREFLLTGHEDFHLVQIQSLETLGVLARALGESMKPLAEECCQLGLGLCIHIDDPDVRRCTYSLFAALSGLMGEGLGPYLPQITTLMLLSLRSTEGIVPQYDGISSFLLFDDDSEAEEEEELMDEDMEEEGDDSEISGYSVENAFFDEKEDTCTALGEISMNTCVAFLPFMDATFDEVYKLLECPHMNVRKSAYEALGQFCCALHKASQRSSSDPSSSPVLQTSLARVMPAYMQAVKVERERPVVMAVLESLTGVLRTCGSLALQPPGRLSELCNVLKAVLQKKTACQDAEEDDDEDDDQAEYDAMLLEHAGEAIPVLAATAGGHAFAPFFATFLPLLLCKTKQSCTVAEKSFAVGTLAESIQGLGTASAQFVSRLFPVLLNNAREADPEVRSNAIFGLGVLAEHGGCPAQDHFPKLLGLLLPLLARERHDRVRDNICGALARVLMASPVGKTEPQVLATLLRALPLKEDMEEWLTIGHLFSFLHQNNPEQVVDVASELLRICSLILPDNRIPPDTKAALLLLLTFLAKQHTDSFHTALGSLPNDKAQELQAMMGLT
B2: Importin-5 (protein, UniProt Q8BKC5 1-1097)
chain: MAAAAAEQQQFYLLLGNLLSPDNVVRKQAEETYENIPGRSKITFLLQAIRNTTAAEEARQMAAVLLRRLLSSAFDEVYPALPSDVQTAIKSELLMIIQMETQSSMRKKICDIAAELARNLIDEDGNNQWPEGLKFLFDSVSSQNMGLREAALHIFWNFPGIFGNQQQHYLDVIKRMLVQCMQDQEHPSIRTLSARATAAFILANEHNVALFKHFADLLPGFLQAVNDSCYQNDDSVLKSLVEIADTVPKYLRPHLEATLQLSLKLCGDTNLNNMQRQLALEVIVTLSETAAAMLRKHTSLIAQTIPQMLAMMVDLEEDEDWANADELEDDDFDSNAVAGESALDRMACGLGGKLVLPMIKEHIMQMLQNPDWKYRHAGLMALSAIGEGCHQQMEGILNEIVNFVLLFLQDPHPRVRYAACNAVGQMATDFAPGFQKKFHEKVIAALLQTMEDQGNQRVQAHAAAALINFTEDCPKSLLIPYLDNLVKHLHSIMVLKLQELIQKGTKLVLEQVVTSIASVADTAEEKFVPYYDLFMPSLKHIVENAVQKELRLLRGKTIECISLIGLAVGKEKFMQDASDVMQLLLKTQTDFNDMEDDDPQISYMISAWARMCKILGKEFQQYLPVVMGPLMKTASIKPEVALLDTQDMENMSDDDGWEFVNLGDQQSFGIKTAGLEEKSTACQMLVCYAKELKEGFVEYTEQVVKLMVPLLKFYFHDGVRVAAAESMPLLLECARVRGPEYLTQMWHFMCDALIKAIGTEPDSDVLSEIMHSFAKCIEVMGDGCLNNEHFEELGGILKAKLEEHFKNQELRQVKRQDEDYDEQVEESLQDEDDNDVYILTKVSDILHSIFSSYKEKVLPWFEQLLPLIVNLICPQRPWPDRQWGLCIFDDIVEHCSPASFKYAEYFISPMLQYVCDNSPEVRQAAAYGLGVMAQFGGDNYRPFCTDALPLLVRVIQAPEAKTKENVNATENCISAVGKIMKFKPDCVNVEEVLPHWLSWLPLHEDKEEAVQTFSYLCDLIESNHPIVLGPNNTNLPKIFSIIAEGEMHEAIKHEDPCAKRLANVVRQVQTSGGLWTECIAQLSPEQQAAIQELLNSA
B3: Importin-11 (protein, UniProt Q8K2V6 1-975)
chain: MDLNSASSVVLQVLTQATSQDTAVLKPAEEQLKQWETQPGFYSVLLNIFTNHTLDINVRWLAVLYFKHGIDRYWRRVAPHALSEEEKSTLRAGLITNFNEPINQIATQIAVLIAKVARLDCPRQWPELIPTLVESVKVQDDLRQHRALLTFYHVTKTLASKRLAADRKLFYDLASGIYNFACSLWNHHTDTFLQHVSSGNEAAVLSSLERTLLSLKVLRKLTVNGFVEPHKNMEVMGFLHGIFERLKQFLECSRSIGTDNVCRDRLEKTIILFTKVLLDFLDQHPISFTPLIQRSLEFSVSYVFTEVGEGVTFERFIVQCMNLIKMIVKNYAYKPSKNFEDSSPETLEAHKIKMAFFTYPTLTEICRRLVSHYFLLTEEELTMWEEDPEGFTVEETGGDSWKYSLRPCTEVLFIDIFHEYNQTLTPVLLEMMQTLEGPTNVEDMNALLIKDAVYNAVGLAAFELFDSVDFDQWFKTQLLPELQVSHNRYKPLRRRVIWLIGQWISVKFKSDLRPMLYEAICNLLQDQDLVVRIETATTLKLTVDDFEFRTDQFLPYLETMFTLLFQLLQQVTECDTKMHVLHVLSCVIERVNVQIRPYVGCLVQYLPLLWKQSEEHNMLRCAILTTLIHLVQGLGADSKNLYPFLLPVIQLSTDVSQPPHVYLLEDGLELWLVTLENSPCVTPELLRIFQNMSPLLELSSENLRTCFKIINGYIFLSSTEFLQTYAAGLCQSFYELLPEITTEGQVQVLKVVENALKVNPVLGPQMFQRILPCVFRGVIEGERYPVVMSIYLAVMGRVLLQNTSFFSSLLNEMGHEFNQEMDQLLGNVIEMWVDRMDNITQPERKKLSALALLSLLPSDNSVIQDKFCGIINISVEALHDVMTEDPETRTYKDCMLMSQHEEPKVTEDEEPPTEQDKRKKMLALKDPVHTVSLQQFIYEKLKAQQEILGEQGFQSLMETVDTEIVTQLQEFLQGF
B4: Nucleoporin NUP-50 (protein, UniProt Q9JIH2 1-466)
chain: MAKRVAEKELTDRNWDEEDEVEEMGTFSVASEEVMKNRAVKKAKRRNVGFESDSGGAFKGFKGLVVPSGGGGFSGFGGSGGKPLEGLTNGNSTDNATPFSNVKTAAEPKAAFGSFAVNGPTTLVDKKISSPKCNNSNQPPSSGPASSTACPGNAYHKQLAGLNCSVRDWIVKHVNTNPLCDLTPIFKDYERYLATIEKQLENGGGSSSESQTDRATAGMEPPSLFGSTKLQQESPFSFHGNKAEDTSEKVEFTAEKKSDAAQGATSASFSFGKKIESSALGSLSSGSLTGFSFSAGSSSLFGKDAAQSKAASSLFSAKASESPAGGGSSECRDGEEEENDEPPKVVVTEVKEEDAFYSKKCKLFYKKDNEFKEKGVGTLHLKPTATQKTQLLVRADTNLGNILLNVLIAPNMPCTRTGKNNVLIVCVPNPPLDEKQPTLPATMLIRVKTSEDADELHKILLEKKDA
B5: Nucleoporin NUP-88 (protein, UniProt Q8CEC0 1-753)
chain: MAAAVGPLGDGELWQSWLPNHVVFLRLREGVRNQSPAEAEKPAASTSPSCPSLPPHLPTRNLVFGLGGELFLWDAEGSAFLVVRLRGPSGGGVEPPLSQYQRLLCINPPLFEIHQVLLSPTQHHVALIGSKGLMALELPQRWGKDSEFEGGKATVNCSTIPIAERFFTSSTSLTLKHAAWYPSEMLDPHIVLLTSDNVIRIYSLREPQTPTKVIVLSEAEEESLILNKGRAYTASLGETAVAFDFGPLVTVSKNIFEQKDRDVVAYPLYILYENGETFLTYVSLLHSPGNIGKLLGPLPMHPAAEDNYGYDACAILCLPCVPNILVIATESGMLYHCVVLEGEEEDDQTLEKSWDPRADFIPSLYVFECVELELALKLASGEDDPFASDFSCPIKLHRDPKCPSRYHCSHEAGVHSVGLTWIHKLHKFLGSDEEDKDSLQELTAEQKCFVEHILCTKPLPCRQPAPIRGFWIVPDILGPTMICITSTYECLIRPLLSTVHPASPPLLCTQEDAEVAESPLRILAETPDSFEKHIKRILQRSAANPAFLKNCSARSSEKDLAPPPEECLQLISRATQVFREQYILKQDLAKEEIQRRVKLLCDQKRKQLEDLNYCREERVSHLFRKSLREMAERLADKYEEAKEKQEDIMNRMKKVLHSFHAQLPVLSDSERDMKKELQLIPDQLRHLGNAIKQVTMKKDYQQRKMEKVLSPQKPTITLSAYQRKCIQSILKEEGEHIREMVKQINDIRNHVTF

biological target: FAM172A bait of the BioID2-based screen; assay: proximity labelling

For B1, which binding is on record?
The binding was “binds”.

With B2 as the binder, how does the binding read?
Its binding is “binds”.

How did the binding turn out when B3 was run?
The binding was “binds”.

B4 was tested. Which binding did it give?
Its binding is “binds”.

B5 was tested. Which binding did it give?
The binding was “binds”.
